{
  "sequences": {"note": "The chains behind the UniProt entries cited, without tags or fusion partners. Where a name states a change or a piece, a line headed by the entry shows the natural chain unless it says otherwise.", "UniProt P18054": "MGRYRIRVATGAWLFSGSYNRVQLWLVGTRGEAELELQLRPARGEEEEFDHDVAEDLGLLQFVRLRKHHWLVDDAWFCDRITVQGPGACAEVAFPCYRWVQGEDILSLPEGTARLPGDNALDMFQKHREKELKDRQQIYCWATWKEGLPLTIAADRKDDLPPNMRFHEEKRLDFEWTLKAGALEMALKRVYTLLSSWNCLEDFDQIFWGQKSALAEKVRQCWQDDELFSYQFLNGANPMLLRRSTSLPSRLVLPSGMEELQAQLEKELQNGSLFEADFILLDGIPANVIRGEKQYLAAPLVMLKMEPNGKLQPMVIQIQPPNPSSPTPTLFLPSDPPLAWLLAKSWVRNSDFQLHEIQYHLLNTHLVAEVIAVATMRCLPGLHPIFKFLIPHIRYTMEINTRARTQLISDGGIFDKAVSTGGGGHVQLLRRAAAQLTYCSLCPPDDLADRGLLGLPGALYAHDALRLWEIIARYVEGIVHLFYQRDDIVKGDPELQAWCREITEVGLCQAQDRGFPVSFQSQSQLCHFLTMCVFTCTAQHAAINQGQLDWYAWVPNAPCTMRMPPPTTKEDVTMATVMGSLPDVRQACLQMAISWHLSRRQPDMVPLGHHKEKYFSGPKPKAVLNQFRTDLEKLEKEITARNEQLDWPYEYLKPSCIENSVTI"},
  "source": "PubChem BioAssay AID1671190",
  "about": "(National Center for Advancing Translational Sciences (NCATS), 2021)",
  "note": "In all, about 580,000 compounds went through this assay and about 6,100 (1.1%) were called active. The inconclusive results got no clear call from the source; some entries with a clear call stand among them for comparison. Calls come from the whole dose curve; as a rule, active = well fitted inhibition curve with a large enough effect; inconclusive = small, poorly fitted or top-dose-only effect, or another doubt; inactive = no such curve, though single readings can be large or run the other way. Potencies of inconclusive entries are doubtful fits and often do not repeat. % is set by controls: 0 for no effect and ±100 for the full control effect; potency is the fitted concentration of half-maximal effect.",
  "data": [
    {"biological_target": "Polyunsaturated fatty acid lipoxygenase ALOX12 (Homo sapiens) (UniProt P18054)", "assay": "Primary qHTS assay for inhibitors of human arachidonate 12S-lipoxygenase (ALOX12): Round 2", "conditions": "purified 12hLO, xylenol orange hydroperoxide absorbance; activity change, negative = inhibition: at 108 µM (top of the series) unless noted", "in_short": "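Purified human 12hLO (150 nM final) in 25 mM Hepes, 0.01% Triton X-100, pH 7.0 was preincubated 15 min at room temperature with compound. Then 40 uM arachidonic acid was added, 30 min. Hydroperoxide was read by Fe-XO absorbance ratio 573/405 nm.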", "values": [
      {"smiles": "CCN1C(=NCCCOC(C)C)N[C@@H](c2ccccc2)[C@H](C(=O)OC)[C@H]1C", "activity change, negative = inhibition": "inactive: -32.5%"},
      {"smiles": "COc1ccc2c3c(n(C)c2c1)[C@@H](CO)N(S(C)(=O)=O)CC31CCN(C(=O)C2CCCC2)CC1", "Potency": "inconclusive: 44.7 µM [inhibitor, partial curve, poor fit]"},
      {"smiles": "CC12CCC(C/C1=N\\O)C2(C)C", "note": "(stereo not drawn)", "Potency": "inconclusive: 4.47 µM [inhibitor, single point]"},
      {"smiles": "O=C1CCCN1CCCN1C(=O)[C@H]2CN(Cc3ccccc3OC(F)(F)F)C[C@H]2C1=O", "activity change, negative = inhibition": "inactive: 23.3%"},
      {"smiles": "O=C([C@@H]1C[C@H](F)CN1C(=O)c1cccc(F)c1)N1CCCCC1", "activity change, negative = inhibition": "inactive: 9.63%"},
      {"smiles": "CCn1c(=O)c2c(nc(-n3nc(C)c(C)c3C)n2C(C)C)n(C)c1=O", "activity change, negative = inhibition": "inactive: -9.82%"},
      {"smiles": "CC(=O)NC1(C)CCN(Cc2cnc(-c3cccc(N(C)C)c3)s2)CC1", "Potency": "inconclusive: 31.6 µM [inhibitor, partial curve, poor fit]"},
      {"smiles": "CCCCN(Cc1ccco1)C(=O)c1cc2c(=O)[nH]c3ccc(C)cc3c2s1", "activity change, negative = inhibition": "inactive: 23.1%"},
      {"smiles": "O=C(Cn1c2[n+](c3ccccc31)CC(O)CS2)c1ccccc1", "note": "(stereo not drawn)", "activity change, negative = inhibition": "inactive: -10.9%"},
      {"smiles": "O=C(NNC(=O)C1CCC(c2ccccc2)CC1)c1ccc(Br)cc1", "note": "(stereo not drawn)", "activity change, negative = inhibition": "inactive: -43.9%"},
      {"smiles": "COC(=O)c1nc2ccccc2nc1NCCc1ccc(C)cc1", "Potency": "inconclusive: 89.1 µM [inhibitor, partial curve, poor fit]"},
      {"smiles": "CC(C)CC(NC(=O)OC(C)(C)C)c1cn([C@@H](CCCCNC(=O)OC(C)(C)C)C(=O)N2CCN(C(=O)OC(C)(C)C)CC2)nn1", "note": "(stereo partly drawn)", "activity change, negative = inhibition": "inactive: 0.379%"},
      {"smiles": "CC(C)=CC(=O)Nc1sc(C)c(C)c1C#N", "Potency": "inconclusive: 2 µM [inhibitor, full curve]"},
      {"smiles": "Fc1ccc(CNC(=S)Nc2ccccc2)cc1", "Potency": "inconclusive: 44.7 µM [inhibitor, partial curve, poor fit]"},
      {"smiles": "CC(C)c1nnc2sc(-c3cc4ccccc4[nH]3)nn12", "Potency": "inconclusive: 44.7 µM [inhibitor, partial curve, poor fit]"},
      {"smiles": "COc1cccc(NC(=O)c2cc(-c3ccc(OC)cc3OC)nc3ccccc23)c1", "Potency": "inconclusive: 79.4 µM [inhibitor, partial curve, poor fit]"},
      {"smiles": "COC(=O)c1ccc2nc(NC(=O)C3CCCCC3)sc2c1", "activity change, negative = inhibition": "inactive: -0.163%"},
      {"smiles": "Cc1c(N/C=C(\\Cl)C(=O)C(F)(F)F)c(=O)n(-c2ccccc2)n1C", "Potency": "inconclusive: 100 µM [inhibitor, single point]"},
      {"smiles": "CCCNC(=O)c1ccc(C2SCC(=O)N2CCc2ccccc2)cc1", "note": "(stereo not drawn)", "activity change, negative = inhibition": "inactive: -17.4%"},
      {"smiles": "COc1ccccc1NC(=S)NC(=O)c1c(-c2ccccc2Cl)noc1C", "Potency": "inconclusive: 35.5 µM [inhibitor, partial curve, poor fit]"},
      {"smiles": "O=c1cc(CN2CCC3(CC2)OCCO3)c2c(ccc3ccccc32)o1", "Potency": "inconclusive: 44.7 µM [inhibitor, partial curve, poor fit]"},
      {"smiles": "O=C(N/C=C/c1ccc(Cl)cc1)NCc1ccc(Cl)cc1", "Potency": "inconclusive: 15.8 µM [inhibitor, partial curve, poor fit]"},
      {"smiles": "COc1ccc(NC(=O)c2cccnn2)cc1", "Potency": "inconclusive: 28.2 µM [inhibitor, single point]"},
      {"smiles": "CS(=O)(=O)N(CC(=O)Nc1ccc(Br)cc1)c1ccc2c(c1)OCO2", "Potency": "inconclusive: 44.7 µM [inhibitor, partial curve, poor fit]"},
      {"smiles": "S=C(NCCCCCCNC(=S)Nc1cccc(Cl)c1)Nc1cccc(Cl)c1", "Potency": "active: 15.8 µM"},
      {"smiles": "CCC(=O)N1c2ccc(S(=O)(=O)CCC(=O)N3CCN(c4ccc(F)cc4)CC3)cc2CC1C", "note": "(stereo not drawn)", "activity change, negative = inhibition": "inactive: 0%"},
      {"smiles": "Cc1nn(-c2ccc(Cl)nn2)c2c1C(c1ccc(O)cc1)CC(=O)N2", "note": "(stereo not drawn)", "activity change, negative = inhibition": "inactive: -4.64%"},
      {"smiles": "CC(=O)N1N=C(c2cccc(Cl)c2)OC1c1ccc(C(C)C)cc1", "note": "(stereo not drawn)", "Potency": "inconclusive: 22.4 µM [inhibitor, partial curve, poor fit]"},
      {"smiles": "O=C(O)CNC(=O)CNS(=O)(=O)c1ccccc1", "Potency": "inconclusive: 5.62 µM [inhibitor, full curve, poor fit]"},
      {"smiles": "CCn1c(/C=C2\\C(=O)N(C(C)C)c3ccccc32)nc2ccccc2c1=O", "Potency": "inconclusive: 79.4 µM [inhibitor, partial curve, poor fit]"},
      {"smiles": "O=C(Nc1ccccc1O)c1csc(NC2CC2)n1", "activity change, negative = inhibition": "inactive: -12.7%"},
      {"smiles": "COC(=O)CN1C(=O)C(O)(CC(=O)c2ccc(Cl)cc2)c2ccccc21", "note": "(stereo not drawn)", "activity change, negative = inhibition": "inactive: 12.8%"},
      {"smiles": "O=C(NCc1cccc(F)c1)c1ccc2nc(CCc3ccccc3)oc2c1", "activity change, negative = inhibition": "inactive: -3.95%"},
      {"smiles": "O=C(c1ccccc1)[C@@H]1[C@@H](C(=O)c2ccco2)[C@@]2(C(=O)Nc3ccccc32)[C@H]2c3ccccc3C=CN12", "Potency": "active: 14.1 µM"},
      {"smiles": "O=C(O)CCC(=O)/C=C/c1ccccc1", "Potency": "inconclusive: 35.5 µM [inhibitor, partial curve, poor fit]"},
      {"smiles": "CC(C)(C)c1ccc(-c2nnc(SCC(=O)NC3CCS(=O)(=O)C3)n2N)cc1", "note": "(stereo not drawn)", "Potency": "inconclusive: 100 µM [inhibitor, partial curve, poor fit]"},
      {"smiles": "Cc1ccc(CNC(=O)N2CCCCCNC(=O)[C@@H]3CCC[C@@H]32)cc1", "activity change, negative = inhibition": "inactive: 44.1%"},
      {"smiles": "CC(C)(C)NS(=O)(=O)c1ccc(NC(=O)c2cc(-c3ccccc3)nc3ccccc23)cc1", "Potency": "inconclusive: 50.1 µM [inhibitor, partial curve, poor fit]"},
      {"smiles": "CC(OC(=O)C1CCN(c2ccc(C(F)(F)F)cn2)CC1)C(=O)Nc1cccc([N+](=O)[O-])c1", "note": "(stereo not drawn)", "Potency": "inconclusive: 70.8 µM [inhibitor, partial curve, poor fit]"},
      {"smiles": "Cc1ccc(CC(=O)N2CCN(c3ccccc3F)CC2)cc1", "activity change, negative = inhibition": "inactive: -5.05%"},
      {"smiles": "COc1ccc(C2Cn3nnc(C(=O)N4CCN(C(=O)c5ccc(C)s5)CC4)c3CO2)cc1", "note": "(stereo not drawn)", "Potency": "inconclusive: 1.12 µM [inhibitor, full curve]"},
      {"smiles": "O=C(Nc1ccc2c(c1)OCCO2)N1CCC(Cc2nc(C3CC3)n[nH]2)C1", "note": "(stereo not drawn)", "activity change, negative = inhibition": "inactive: 7.38%"},
      {"smiles": "COc1ccc(Cl)cc1NC(=O)CN(C)C(=O)c1cccc(S(=O)(=O)N2CCN(C)CC2)c1", "Potency": "inconclusive: 89.1 µM [inhibitor, single point]"},
      {"smiles": "CCOC(=O)N1CCc2c(sc(NCc3cccc(F)c3)c2C(=O)Nc2ccc(OCC)cc2)C1", "Potency": "inconclusive: 17.8 µM [inhibitor, partial curve]"},
      {"smiles": "O=C(c1ccco1)N1CCC(Cc2nc(C3CCOCC3)no2)CC1", "activity change, negative = inhibition": "inactive: 37.8%"},
      {"smiles": "Cc1ccc(OC(=O)c2ccccc2)cc1C", "activity change, negative = inhibition": "inactive: -6.65%"},
      {"smiles": "O=C(Nc1nnc(-c2cccs2)o1)c1cccc(C(F)(F)F)c1", "activity change, negative = inhibition": "inactive: -3.22%"},
      {"smiles": "Cc1ccc(-n2ncnc2-c2cc3c(n(-c4ccccc4)c2=O)CC(C)(C)CC3=O)cc1", "Potency": "inconclusive: 14.1 µM [inhibitor, full curve, poor fit]"},
      {"smiles": "CC(C)C[C@@H]1N[C@H](C(=O)NCc2ccc(C#N)cc2)Cc2c[nH]c3cccc1c23", "activity change, negative = inhibition": "inactive: -15.1% [at 176 µM]"},
      {"smiles": "Cc1cc(NC(=O)c2ccc3c(c2)N(C)C2CCCCN2C3=O)ccc1F", "note": "(stereo not drawn)", "Potency": "inconclusive: 63.1 µM [inhibitor, partial curve, poor fit]"},
      {"smiles": "O=C(Nc1ccc(Oc2ccccc2)nc1)[C@H]1O[C@@H](n2ccc(=O)[nH]c2=O)[C@H](O)[C@@H]1O", "Potency": "inconclusive: 89.1 µM [inhibitor, single point]"},
      {"smiles": "COc1cc(C(=O)NC2CCN(C)CC2)ccc1Nc1ncc2c(n1)N(C1CCCC1)CCC(=O)N2C(C)C", "Potency": "inconclusive: 24.3 µM [inhibitor, single point]"},
      {"smiles": "C[C@]1(NC(=O)c2cnccn2)OC[C@@H]2CC[C@H](C(=O)NCc3ccc(OC(F)(F)F)cc3)N2C1=O", "activity change, negative = inhibition": "inactive: 1.1%"},
      {"smiles": "CCOC(=O)C1(Cc2ccccc2)CCCN(CCO)C1", "note": "(stereo not drawn)", "activity change, negative = inhibition": "inactive: -4.07%"},
      {"smiles": "CCc1nnc(NC(=O)CC(=O)Nc2ccccc2C(=O)O)s1", "Potency": "inconclusive: 31.6 µM [inhibitor, partial curve, poor fit]"},
      {"smiles": "O=S(=O)(c1ccccc1F)N1CCN(Cc2ncc(-c3ccc(F)cc3)o2)CC1", "Potency": "inconclusive: 50.1 µM [inhibitor, partial curve, poor fit]"},
      {"smiles": "CC(=O)c1cccc(CN2CCCC(C(=O)Nc3cccc(-n4cccn4)c3)C2)c1", "note": "(stereo not drawn)", "Potency": "inconclusive: 79.4 µM [inhibitor, partial curve, poor fit]"},
      {"smiles": "COc1ccc2[nH]cc(CCNC(=O)COc3ccc4ccc(=O)oc4c3)c2c1", "activity change, negative = inhibition": "inactive: -5.6%"},
      {"smiles": "CCn1c(SCc2nc(-c3cccs3)no2)nnc1-c1c[nH]c2ccccc12", "activity change, negative = inhibition": "inactive: 38.9%"},
      {"smiles": "CCc1cccc(NC(=O)Cn2nc(C)c3sc4ccccc4c3c2=O)c1", "Potency": "inconclusive: 63.1 µM [inhibitor, partial curve, poor fit]"},
      {"smiles": "O=C1C(NS(=O)(=O)c2ccc(Br)cc2)=C(N2CCCCC2)C(=O)c2ccccc21", "Potency": "inconclusive: 35.5 µM [inhibitor, partial curve, poor fit]"},
      {"smiles": "S=c1[nH]nc(-c2cc(-c3ccccc3)n[nH]2)n1/N=C/C=C/c1ccccc1", "Potency": "inconclusive: 3.55 µM [inhibitor, full curve, poor fit]"},
      {"smiles": "CC(C)CN1CCC(=O)N([C@H](CN=[N+]=[N-])Cc2ccccc2)CC1", "Potency": "inconclusive: 35.5 µM [inhibitor, single point]"},
      {"smiles": "Cc1onc(-c2ccccc2)c1C(=O)OCC(=O)N1CCCCC1", "Potency": "inconclusive: 126 µM [inhibitor, partial curve, poor fit]"},
      {"smiles": "CC(=O)NCc1ccc(-c2csc(Nc3ccc(F)cc3)n2)s1", "Potency": "inconclusive: 50.1 µM [inhibitor, single point]"},
      {"smiles": "CC(C)NC(=O)c1cc(C2CCCCN2C(=O)c2ccc(Cl)cc2)on1", "note": "(stereo not drawn)", "activity change, negative = inhibition": "inactive: 0.0175%"},
      {"smiles": "COc1ccccc1OC(C)C(=O)N1CCC(c2nc3ccccc3s2)CC1", "note": "(stereo not drawn)", "activity change, negative = inhibition": "inactive: -6.07%"},
      {"smiles": "[S-]C(=Nc1ccc(Cl)cc1)N[n+]1ccccc1", "Potency": "inconclusive: 44.7 µM [inhibitor, partial curve, poor fit]"}
    ]}
  ]
}
